In all, about 320,000 compounds went through this assay and about 22,000 (6.9%) were called active. The shares of active, inactive and inconclusive entries below differ from those in the screen. The call rests on the fitted dose curve; in most records, active means well fitted inhibition curve with a large enough effect; inconclusive means small, poorly fitted or top-dose-only effect, or another doubt; inactive means no such curve, though single readings can be large or run the other way. Potencies beside an inconclusive call are fits to weak or partial responses and may not hold up.
Assay: Primary qHTS for delayed death inhibitors of the malarial parasite plastid, 96 hour incubation
Conditions: P. falciparum luciferase reporter growth; series mostly up to 28.7 µM; activity change, negative = inhibition: at the top concentration
Outline: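 Cell-based qHTS: luciferase-tagged P. falciparum in erythrocytes (2% hematocrit, 0.05% parasitemia final) incubated with compounds for 96 hours, 37 C, 5% CO2; luciferase detection reagent then added and luminescence measured.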
On the % scale 0 is the no-effect control and ±100 the full control effect; potency means the concentration at half of the fitted maximal effect.

Compound	Potency	activity change, negative = inhibition
O=C(/C=C\c1ccccc1)Oc1cccc2cccnc12	active: 5.86 µM	–
O=C(COC(=O)c1ccc(Cl)c(S(=O)(=O)NCc2ccccc2)c1)NC1CC1	–	inactive: 58.3%
Cc1ccc(S(=O)(=O)N2CCN(Cc3nc4sc5c(c4c(=O)[nH]3)CCCC5)CC2)cc1	inconclusive: 18.5 µM [inhibitor, single point]	–
CCOC(=O)Cn1c(=O)c2c(nc(N3CCCCC3)n2C)n(C)c1=O	inconclusive: 10.4 µM [inhibitor, single point]	–
O=C1OCCN1C(=O)[C@H]1[C@H](c2ccc(F)cc2)C(c2ccc(F)cc2)=NN1c1ccccc1	inconclusive: 18.5 µM [inhibitor, partial curve, poor fit]	–
O=[N+]([O-])c1ccc(/C=N/Nc2ccnc3cc(Cl)ccc23)o1	inconclusive: 3.29 µM [inhibitor, single point]	–
CCc1ccc(NC(=O)CCc2ccc(C)o2)cc1	–	inactive: -19.2%
COCCNC(=S)N(Cc1cc2cc(C)ccc2n2nnnc12)C1CCCC1	–	inactive: -13%
Cc1ccc(N(CC(O)CN2CCOCC2)S(=O)(=O)c2ccc3ccccc3c2)cc1 (stereo not drawn)	inconclusive: 18.5 µM [inhibitor, single point]	–
COc1cccc(C2c3[nH]c4ccccc4c3CCN2Cc2cnc(C)s2)c1OC (stereo not drawn)	inconclusive: 10.4 µM [inhibitor, single point]	–
Cc1nc2ccc(NC(=O)c3cccc(S(=O)(=O)N(C)c4ccccc4)c3)cc2s1	active: 8.28 µM	–
Cc1cc(C)cc(SCc2noc(C(=O)NCCCN3CCOCC3)c2C(=O)NCCCN2CCOCC2)c1	inconclusive: 11.7 µM [inhibitor, single point]	–
O=C(Nc1ccccc1C(=O)N1CCCC1)c1ncoc1-c1cccc(Cl)c1	inconclusive: 8.28 µM [inhibitor, partial curve]	–
CCN(CC)CCNC(=O)c1ccc(NC(=O)c2ccc3c(c2)CCC3)cc1	active: 3.7 µM	–
CCOC(=O)c1sc(NC(=O)CN2CCN(c3ccc(OC)cc3)CC2)nc1C	inconclusive: 18.5 µM [inhibitor, partial curve, poor fit]	–
O=C(c1ccc([N+](=O)[O-])cc1)N1CCOC12CCN(c1ncc(C(F)(F)F)cc1Cl)CC2	–	inactive: -10.5%
CCOc1ccc(S(=O)(=O)Nc2cccc(C(=O)N(C)CC(=O)Nc3cccc(OC)c3)c2)cc1	–	inactive: 8.91%
O=C(NC1CCCC1)C1CCN(C(=O)c2cccc(Cl)c2)CC1	–	inactive: 1.34%
Cc1oc(/N=C/c2ccccc2)c(C#N)c1C	inconclusive: 4.15 µM [inhibitor, single point]	–
CCc1ccc2c(c1)N(C[C@H](C)CN(C)C)c1ccccc1S2	active: 15.1 µM	–
O=S(=O)(c1ccc(F)cc1)N1CCN(Cc2nnc(-c3ccccc3)o2)CC1	inconclusive: 18.5 µM [inhibitor, single point]	–
COc1cccc(-c2nnc(SCC(=O)NCc3ccc4c(c3)OCO4)n2Cc2ccco2)c1	active: 6.57 µM	–
Nc1cc(C(=O)OCC(=O)N2CCC(Cc3ccccc3)CC2)ccc1Cl	inconclusive: 10.4 µM [inhibitor, single point]	–
CC(/C=N/NC(=O)c1nnn(-c2nonc2N)c1CN1CCCCC1)=C\c1ccccc1	active: 9.28 µM	–
COc1cc2cc(C)c3nnc(SCC(N)=O)n3c2cc1OC	inconclusive: 18.5 µM [inhibitor, single point]	–

Single entries from above:
activity change, negative = inhibition, COCCNC(=S)N(Cc1cc2cc(C)ccc2n2nnnc12)C1CCCC1 reads inactive: -13%
activity change, negative = inhibition, CCOc1ccc(S(=O)(=O)Nc2cccc(C(=O)N(C)CC(=O)Nc3cccc(OC)c3)c2)cc1 reads inactive: 8.91%
Potency, CCc1ccc2c(c1)N(C[C@H](C)CN(C)C)c1ccccc1S2 reads active: 15.1 µM
Potency, Nc1cc(C(=O)OCC(=O)N2CCC(Cc3ccccc3)CC2)ccc1Cl reads inconclusive: 10.4 µM [inhibitor, single point]
Potency, CCOC(=O)Cn1c(=O)c2c(nc(N3CCCCC3)n2C)n(C)c1=O reads inconclusive: 10.4 µM [inhibitor, single point]

The listing continues:

Compound	Potency	activity change, negative = inhibition
COc1cccc2c(=O)cc(C)n(CC(=O)Nc3cccc(C)c3)c12	–	inactive: -21.8%
Cc1ccccc1OCC(=O)Nc1ccc2c(c1)Cc1ccccc1-2	inconclusive: 0.131 µM [inhibitor, partial curve, poor fit]	–
COc1ccc(Nc2nc(N)c(C(=O)c3ccc(F)cc3)s2)cc1	inconclusive: 11.7 µM [inhibitor, partial curve]	–
CC1CN(C(C)C(=O)NC(c2ccccc2)c2ccccc2)CC(C)O1 (stereo not drawn)	–	inactive: 3.59%
C(=N\n1cnnc1SCc1ccccc1)/c1ccco1	inconclusive: 18.5 µM [inhibitor, partial curve, poor fit]	–
O=C(O)Cc1ccc(NC(=S)Nc2cccc(Cl)c2Cl)cc1	–	inactive: 14.9%
CCc1nccn1CCC(=O)N1CCCC(N2CCN(c3cccc(Cl)c3)CC2)C1 (stereo not drawn)	–	inactive: 36.9%
Cc1c(C(=O)NCC(c2ccco2)N2CCCC2)oc2ccc(Cl)cc12 (stereo not drawn)	inconclusive: 18.5 µM [inhibitor, single point]	–
C=CCn1c(SCC(=O)c2cccs2)nc2sc(C)c(C)c2c1=O	inconclusive: 18.5 µM [inhibitor, single point]	–
COc1ccc2nc(SCC(N)=O)cc(C)c2c1	–	inactive: -1.98% [at 5.75 µM]
Cc1cc(C(=O)Nc2cccc(C)c2C)c2ccccc2n1	–	inactive: 49.8%
O=C(CSc1nnc2c(n1)[nH]c1ccccc12)NCc1ccccc1F	inconclusive: 11.7 µM [inhibitor, single point]	–
CSc1nsc(SC)c1NC(=O)N1CCCC1	inconclusive: 6.57 µM [inhibitor, partial curve, poor fit]	–
CCSc1nnc(-c2ccncc2)o1	–	inactive: 75.3%
Cn1c(=O)[nH]c(=O)c2c1nc(SCCC(=O)O)n2Cc1cccc(Br)c1	–	inactive: 5.21%
COc1ccc(N(CC(=O)Nc2cccc(C)c2)S(=O)(=O)c2c(C)noc2C)cc1	inconclusive: 11.7 µM [inhibitor, partial curve]	–
Cc1ccn2c(=O)c(C(=O)NCCC3=CCCCC3)c(O)nc2c1	inconclusive: 9.28 µM [inhibitor, single point]	–
CC(C)(C)c1ccc(-c2nc(C#N)c(NCc3cccnc3)o2)cc1	inconclusive: 9.28 µM [inhibitor, partial curve, poor fit]	–
COc1ccc(Cl)cc1NC(=O)C1Cc2cc(S(=O)(=O)N3CCCC3)ccc2N1C(C)=O (stereo not drawn)	inconclusive: 18.5 µM [inhibitor, single point]	–
COc1cccc(N(CC(=O)N2CCN(C)CC2)S(=O)(=O)c2ccccc2)c1	inconclusive: 0.657 µM [inhibitor, partial curve, poor fit]	–
N#Cc1c(NC(=O)c2cnccn2)sc2c1CCCC2	–	inactive: 73%
CCn1c(SCC(=O)Nc2nc3ccc(C)cc3s2)nc2c(c1=O)SC(C)C2 (stereo not drawn)	inconclusive: 4.15 µM [inhibitor, partial curve, poor fit]	–
CC(=O)c1ccccc1C(=O)N1CCCC(CCC(=O)N2CCN(c3ccccn3)CC2)C1 (stereo not drawn)	–	inactive: 16.9%
CCCCCn1c(=N)c(S(=O)(=O)c2ccc(Cl)cc2)cc2c(=O)n3cccc(C)c3nc21	–	inactive: 11.8%
CCOCCOC(=O)C1=C(C)Nc2ccc(C)cc2S1	–	inactive: 45.4%

Compound	Potency	activity change, negative = inhibition
CCOc1ccc(C(=O)NNC(=O)C2CC(=O)N(c3ccc(C)cc3)C2)cc1 (stereo not drawn)	–	inactive: 9.93%
COCC1CCCN(C(=O)c2ccc3oc(CCCc4ccccc4)nc3c2)C1 (stereo not drawn)	inconclusive: 11.7 µM [inhibitor, single point]	–
CCc1nnc(NC(=O)c2cc(S(=O)(=O)N3CCN(c4ccccc4)CC3)ccc2Cl)s1	–	inactive: 5.82%
Cc1ccc(NC(=O)C(OC(=O)c2cnc(C)cn2)c2ccccc2)c([N+](=O)[O-])c1 (stereo not drawn)	–	inactive: 18%
O=C(O)COc1ccccc1-c1nc(-c2ccccc2)c(-c2ccccc2)[nH]1	–	inactive: 315%
Fc1cccc(NC(=S)NCc2cccnc2)c1	active: 7.38 µM	–
CCOC(=O)c1c(-c2ccccc2)csc1NC(=O)/C(C#N)=C/c1ccc(O)c(OC)c1	inconclusive: 14.7 µM [inhibitor, partial curve, poor fit]	–
O=C(NC1CCCCCC1)C1CCCN(c2ncccn2)C1 (stereo not drawn)	–	inactive: -0.108%
O=C(COc1ccc(Cl)cc1)Nc1cccc(S(=O)(=O)NCc2ccco2)c1	–	inactive: -21.6%
COc1ccc(S(=O)(=O)N2CCN(C(=S)NCCc3ccccc3)CC2)cc1	inconclusive: 10.4 µM [inhibitor, partial curve, poor fit]	–
O=C(NC1CCCCC1)c1cc(-c2cccc(Cl)c2)on1	inconclusive: 1.31 µM [inhibitor, full curve]	–
C=CCn1c(=O)c2c(C)c(C)sc2n2c(Nc3ccccc3)nnc12	inconclusive: 11.7 µM [inhibitor, partial curve, poor fit]	–
O=C1COc2ccc(C(=O)CSc3ccc(Br)cc3)cc2N1	inconclusive: 18.5 µM [inhibitor, single point]	–
CCN(CC)S(=O)(=O)c1ccc(C(=O)Nc2ccc3c(c2)OCCO3)cc1	inconclusive: 0.0928 µM [inhibitor, full curve, poor fit]	–
CC/C(Cc1ccccc1)=N/NC(=O)CNC(=O)c1ccc(Cl)cc1Cl	–	inactive: 36.8%
CCCCOc1ccc(N2C(=O)CC(NCCc3ccc(S(N)(=O)=O)cc3)C2=O)cc1 (stereo not drawn)	inconclusive: 16.5 µM [inhibitor, single point]	–
COc1ccc(C)cc1N(C(=O)c1ccccc1F)c1nc2ccccc2s1	active: 16.5 µM	–
CC1CCCN(S(=O)(=O)c2ccc(Br)s2)C1 (stereo not drawn)	–	inactive: 6.62%
O=C(c1cc(S(=O)(=O)N2CCOCC2)c(Cl)cc1Cl)N1CCCCC1CO (stereo not drawn)	–	inactive: -0.573%
Cc1ccc2c(c1)c1c(n2CC(O)CN2CCC(C)CC2)CCCC1 (stereo not drawn)	inconclusive: 3.29 µM [inhibitor, partial curve, poor fit]	–
COc1ccc(N(C)C(=O)c2cc3c(Cl)nc4ccccc4c3s2)cc1	inconclusive: 18.5 µM [inhibitor, single point]	–
COc1ccc(OCC(O)CNCCOc2ccccc2OC)c(C(C)(C)C)c1 (stereo not drawn)	active: 3.7 µM	–
COc1ccc2c3c1O[C@H]1[C@@H](O)C=C[C@H]4C(C2)NCCC341 (stereo partly drawn)	active: 0.169 µM	–
